{"source": "PubChem BioAssay AID1259424 (University of Nebraska Medical Center, 2018)", "screen": "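Seek colon cancer survival genes behaving like KSR1, using a six-gene signature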 (primary screen)", "cell system": "human HCT116 colon cancer cells", "reagents": "siRNA pool against human genes, 50 nM", "measured": "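Log2 levels of six mRNAs (branched-DNA multiplex), adjusted by two reference genes and the non-targeting median, then scored against the average KSR1 knockdown pattern as Pearson r and euclidean distance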", "scale": "mean correlation with KSR1 profile: higher = expression change more like KSR1 knockdown; mean distance from KSR1 profile: higher = expression change less like KSR1 knockdown", "note": "The deposit covers about 14,000 reagents; this is a random part of them. 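Higher correlation or smaller distance means closer resemblance to KSR1 loss; control wells, including KSR1 knockdowns, recur on many plates.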 Not all columns of the deposit are shown. No sequences are given here. Not given: the time to read-out."}
The opening 3 entries as a preview:
{"gene knocked down": "RAD21 (RAD21 cohesin complex component)", "mean correlation with KSR1 profile": 0.304, "mean distance from KSR1 profile": 3.58}
{"gene knocked down": "PANK2 (pantothenate kinase 2)", "mean correlation with KSR1 profile": 0.365, "mean distance from KSR1 profile": 2.34}
{"gene knocked down": "JPT2 (Jupiter microtubule associated homolog 2)", "mean correlation with KSR1 profile": 0.799, "mean distance from KSR1 profile": 2.5}

The listing, from the first entry:
{"gene knocked down": "RAD21 (RAD21 cohesin complex component)", "mean correlation with KSR1 profile": 0.304, "mean distance from KSR1 profile": 3.58}
{"gene knocked down": "PANK2 (pantothenate kinase 2)", "mean correlation with KSR1 profile": 0.365, "mean distance from KSR1 profile": 2.34}
{"gene knocked down": "JPT2 (Jupiter microtubule associated homolog 2)", "mean correlation with KSR1 profile": 0.799, "mean distance from KSR1 profile": 2.5}
{"gene knocked down": "EIF2D (eukaryotic translation initiation factor 2D)", "mean correlation with KSR1 profile": 0.312, "mean distance from KSR1 profile": 1.74}
{"gene knocked down": "ZNF225 (zinc finger protein 225)", "mean correlation with KSR1 profile": 0.517, "mean distance from KSR1 profile": 1.29}
{"gene knocked down": "B3GNT3", "mean correlation with KSR1 profile": -0.502, "mean distance from KSR1 profile": 2.87}
{"gene knocked down": "PCDHA6 (protocadherin alpha 6)", "mean correlation with KSR1 profile": 0.68, "mean distance from KSR1 profile": 1.61}
{"gene knocked down": "CDH16 (cadherin 16)", "mean correlation with KSR1 profile": -0.152, "mean distance from KSR1 profile": 3.53}
{"gene knocked down": "KLC2 (kinesin light chain 2)", "mean correlation with KSR1 profile": -0.266, "mean distance from KSR1 profile": 1.07}
{"gene knocked down": "PDZD7 (PDZ domain containing 7)", "mean correlation with KSR1 profile": 0.748, "mean distance from KSR1 profile": 1.88}
{"gene knocked down": "YBEY (ybeY metalloendoribonuclease)", "mean correlation with KSR1 profile": -0.491, "mean distance from KSR1 profile": 4.68}
{"gene knocked down": "MCTP1 (multiple C2 and transmembrane domain containing 1)", "mean correlation with KSR1 profile": 0.271, "mean distance from KSR1 profile": 1.76}
{"gene knocked down": "ALAS1 (5'-aminolevulinate synthase 1)", "mean correlation with KSR1 profile": -0.0527, "mean distance from KSR1 profile": 2.37}
{"gene knocked down": "COMMD10 (COMM domain containing 10)", "mean correlation with KSR1 profile": -0.678, "mean distance from KSR1 profile": 2.81}
{"gene knocked down": "KDM4C (lysine demethylase 4C)", "mean correlation with KSR1 profile": -0.938, "mean distance from KSR1 profile": 1.21}
{"gene knocked down": "RESF1 (retroelement silencing factor 1)", "mean correlation with KSR1 profile": -0.484, "mean distance from KSR1 profile": 1.76}
{"gene knocked down": "CACNA1S (calcium voltage-gated channel subunit alpha1 S)", "mean correlation with KSR1 profile": 0.0157, "mean distance from KSR1 profile": 1.57}
{"gene knocked down": "RPL36AL (ribosomal protein L36a like)", "mean correlation with KSR1 profile": -0.334, "mean distance from KSR1 profile": 3.89}
{"gene knocked down": "CLEC3B (C-type lectin domain family 3 member B)", "mean correlation with KSR1 profile": 0.575, "mean distance from KSR1 profile": 2}
{"gene knocked down": "FXYD7 (FXYD domain containing ion transport regulator 7)", "mean correlation with KSR1 profile": -0.023, "mean distance from KSR1 profile": 2.61}
{"gene knocked down": "RIBC2 (RIB43A domain with coiled-coils 2)", "mean correlation with KSR1 profile": -0.45, "mean distance from KSR1 profile": 4.57}
{"gene knocked down": "USP18 (ubiquitin specific peptidase 18)", "mean correlation with KSR1 profile": 0.321, "mean distance from KSR1 profile": 1.66}
{"gene knocked down": "MGST3 (microsomal glutathione S-transferase 3)", "mean correlation with KSR1 profile": -0.704, "mean distance from KSR1 profile": 3.04}
{"gene knocked down": "TNK2 (tyrosine kinase non receptor 2)", "mean correlation with KSR1 profile": 0.277, "mean distance from KSR1 profile": 1.45}
{"gene knocked down": "HDAC6 (histone deacetylase 6)", "mean correlation with KSR1 profile": 0.113, "mean distance from KSR1 profile": 1.52}
{"gene knocked down": "SIRPB1 (signal regulatory protein beta 1)", "mean correlation with KSR1 profile": -0.324, "mean distance from KSR1 profile": 2.62}
{"gene knocked down": "PRKCH (protein kinase C eta)", "mean correlation with KSR1 profile": 0.511, "mean distance from KSR1 profile": 3.87}
{"gene knocked down": "DCPS (decapping enzyme, scavenger)", "mean correlation with KSR1 profile": 0.0501, "mean distance from KSR1 profile": 1.87}
